The supplement of paper PMC9233669
Variants at the background level are over-represented here.

Columns and labels:
biotinyl-Leu-oxazolone = test: self-aminoacylation, catalytic enhancement (BLO) (fold over background); higher = more active; k-Seq, kA / k0A0; sequences stand for … in GGGAAUGGAUCCACAUCUACGAAUUC…UUCACUGCAGACUUGACGAAGCUG
Outline: (§1)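 Each biotinyl-aminoacyl-oxazolone, at 2–1250 μM, was incubated with mutagenized RNA pools (0.43 μM) carrying a 21-nt variable region. The 50 μL reactions contained HEPES/NaCl/KCl/MgCl2/CaCl2 buffer with 5% acetonitrile at pH 6.9–7.0 and ran for 90 minutes at room temperature. After streptavidin capture, RNA was measured by qPCR in triplicate and by Illumina sequencing, and catalytic enhancement was calculated as median kA over the uncatalyzed rate from a pseudo-first-order fit of per-sequence fraction reacted.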

biotinyl-Val-oxazolone = test: self-aminoacylation, catalytic enhancement (BVO) (fold over background); higher = more active; k-Seq, kA / k0A0; sequences stand for … in GGGAAUGGAUCCACAUCUACGAAUUC…UUCACUGCAGACUUGACGAAGCUG
Outline: as §1

biotinyl-Met-oxazolone = test: self-aminoacylation, catalytic enhancement (BMO) (fold over background); higher = more active; k-Seq, kA / k0A0; sequences stand for … in GGGAAUGGAUCCACAUCUACGAAUUC…UUCACUGCAGACUUGACGAAGCUG
Outline: as §1

biotinyl-Ile-oxazolone = test: self-aminoacylation, catalytic enhancement (BIO) (fold over background); higher = more active; k-Seq, kA / k0A0; sequences stand for … in GGGAAUGGAUCCACAUCUACGAAUUC…UUCACUGCAGACUUGACGAAGCUG
Outline: as §1

biotinyl-Trp-oxazolone = test: self-aminoacylation, catalytic enhancement (BWO) (fold over background); higher = more active; k-Seq, kA / k0A0; sequences stand for … in GGGAAUGGAUCCACAUCUACGAAUUC…UUCACUGCAGACUUGACGAAGCUG
Outline: as §1

| Sequence | self-aminoacylation (biotinyl-Leu-oxazolone) | self-aminoacylation (biotinyl-Val-oxazolone) | self-aminoacylation (biotinyl-Met-oxazolone) | self-aminoacylation (biotinyl-Ile-oxazolone) | self-aminoacylation (biotinyl-Trp-oxazolone) |
| --- | --- | --- | --- | --- | --- |
| AAAUUUGCUAAUAGUCGAAAG [Fam3.1 aminoacylation ribozyme variant] | 1.27 | 1.17 | 1.44 | 1.55 | 1.43 |
| AAGAUUGCUGAUAGUCGCAAG [Fam3.1 aminoacylation ribozyme variant] | 1.94 | 1.53 | 1.56 | 1.85 | 1.53 |
| AAGCUUCCUAAUAGUCGCAAG [Fam3.1 aminoacylation ribozyme variant] | 1.33 | 1.68 | 1.5 | 1.98 | 1.25 |
| AAGCUUGCUAAUAGUCCCAAG [Fam3.1 aminoacylation ribozyme variant] | 1.32 | 1.04 | 1.5 | 1.34 | 1.73 |
| AAGGUUGCCAAUAGUCGCAAG [Fam3.1 aminoacylation ribozyme variant] | 1.72 | 1.5 | 1.27 | 1.54 | 1.53 |
| AAGGUUGCUAAUAGUCGCACG [Fam3.1 aminoacylation ribozyme variant] | 1.3 | 0.86 | 1.14 | 1.09 | 1.09 |
| AAGGUUGCUAAUGGUCGCAAG [Fam3.1 aminoacylation ribozyme variant] | 0.828 | 1 | 0.949 | 1.06 | 0.994 |
| AAGGUUGCUGAUAGUCGCAAG [Fam3.1 aminoacylation ribozyme variant] | 1.33 | 1.43 | 1.1 | 1.71 | 1.44 |
| AAGUAUGCUAAGAGUCGCAAG [Fam3.1 aminoacylation ribozyme variant] | 1.71 | 1.14 | 1.58 | 1.37 | 1.69 |
| AAGUCUGCUAAAAGUCGCAAG [Fam3.1 aminoacylation ribozyme variant] | 1.72 | 1.23 | 1.92 | 1.35 | 6.66 |
| AAGUUAGCUGAUAGUCGCAAG [Fam3.1 aminoacylation ribozyme variant] | 1.86 | 1.81 | 1.28 | 1.66 | 1.9 |
| AAGUUCGGUAAUAGUCGCAAG [Fam3.1 aminoacylation ribozyme variant] | 1.86 | 1.91 | 1.69 | 1.84 | 1.98 |
| AAGUUGGCUAAAAGUCGCAAG [Fam3.1 aminoacylation ribozyme variant] | 1.67 | 1.49 | 1.46 |  | 1.51 |
| AAGUUGGCUAAUAGUCGCCAG [Fam3.1 aminoacylation ribozyme variant] | 1.33 | 1.44 | 1.38 | 1.76 | 1.15 |
| AAGUUUACCAAUAGUCGCAAG [Fam3.1 aminoacylation ribozyme variant] | 1.42 | 1.67 | 1.48 | 1.98 | 1.78 |
| AAGUUUACUAAAAGUCGCAAG [Fam3.1 aminoacylation ribozyme variant] |  | 1.61 | 1.7 | 1.85 | 1.67 |
| AAGUUUACUAAUAGCCGCAAG [Fam3.1 aminoacylation ribozyme variant] | 1.23 | 1.71 | 1.44 | 1.86 | 1.45 |
| AAGUUUACUAAUAGGCGCAAG [Fam3.1 aminoacylation ribozyme variant] | 0.954 | 1.02 | 1.07 | 1.21 | 0.846 |
| AAGUUUACUAAUAGUCGAAAG [Fam3.1 aminoacylation ribozyme variant] | 1.37 | 1.44 | 1.01 | 1.31 | 1.08 |
| AAGUUUGCUAAUAGGGGCAAG [Fam3.1 aminoacylation ribozyme variant] | 0.505 | 0.649 | 0.663 | 0.686 | 0.665 |

| Sequence | self-aminoacylation (biotinyl-Leu-oxazolone) | self-aminoacylation (biotinyl-Val-oxazolone) | self-aminoacylation (biotinyl-Met-oxazolone) | self-aminoacylation (biotinyl-Ile-oxazolone) | self-aminoacylation (biotinyl-Trp-oxazolone) |
| --- | --- | --- | --- | --- | --- |
| AAGUUUGCUAAUAGGUGCAAG [Fam3.1 aminoacylation ribozyme variant] | 0.609 | 0.836 | 0.706 | 0.728 | 0.526 |
| AAUUUUGGUAAUAGUCGCAAG [Fam3.1 aminoacylation ribozyme variant] | 1.8 | 1.56 |  | 2.06 | 1.77 |
| ACACACUUCAAGCCAUCGGUC [Fam1B.1 aminoacylation ribozyme variant] |  | 1.89 | 1.85 | 1.72 | 2 |
| AUUACCCUGGUCACCGAGUAA [Fam2.1 aminoacylation ribozyme variant] |  |  |  | 1.88 | 1.65 |
| AUUCACAUAGGUCGUCGGGUG [Fam2.2 aminoacylation ribozyme variant] |  | 1.88 | 1.96 | 1.73 | 1.73 |
| AUUCACCUAGGUCAUCGAGUU [Fam2.2 aminoacylation ribozyme variant] |  |  |  |  | 1.92 |
| AUUCACCUAGGUCAUCUCGUG [Fam2.2 aminoacylation ribozyme variant] |  | 1.45 | 1.72 | 1.29 | 1.8 |
| AUUCACCUAGGUCUUCAGGUG [Fam2.2 aminoacylation ribozyme variant] |  | 1.86 |  | 1.77 | 1.62 |
| CAACACUUCAAGCAAUCGGGC [Fam1B.1 aminoacylation ribozyme variant] |  |  |  |  | 1.69 |
| CGACACUUCACGCAAUCGGUC [Fam1B.1 aminoacylation ribozyme variant] |  | 1.75 | 1.4 | 1.56 | 1.7 |
| CUACACUUCAAGUAAUCGGUC [Fam1B.1 aminoacylation ribozyme variant] | 0.807 | 0.613 | 0.657 | 0.647 |  |
| CUACACUUCAAUCAAUCGGUC [Fam1B.1 aminoacylation ribozyme variant] | 1.32 | 0.884 | 0.833 | 0.853 |  |
| CUACUCCAAACAAUCGAUCUG [Fam1A.1 aminoacylation ribozyme variant] | 0.533 | 0.661 | 0.48 | 0.704 |  |
| CUACUUCAAAAAAUCGGUAUG [Fam1A.1 aminoacylation ribozyme variant] | 0.691 | 0.728 | 0.727 | 0.769 |  |
| CUACUUCAAACAAGCGGUCUA [Fam1A.1 aminoacylation ribozyme variant] | 0.73 | 0.707 | 0.838 | 0.936 |  |
| CUACUUCAAACAAUCGGACUG [Fam1A.1 aminoacylation ribozyme variant] | 0.885 | 0.836 | 0.749 | 0.848 |  |
| CUACUUCAAACAAUCGGGGUG [Fam1A.1 aminoacylation ribozyme variant] | 4.32 | 2.35 | 3.77 | 3.04 |  |
| CUACUUCAAACAAUCGGUCAC [Fam1A.1 aminoacylation ribozyme variant] | 0.863 | 0.816 | 0.719 | 0.703 |  |
| CUACUUCAAACAAUCGGUCGG [Fam1A.1 aminoacylation ribozyme variant] | 1.7 | 1.13 | 1.2 | 1.15 |  |
| CUACUUCAAAUAAUCGGACUG [Fam1A.1 aminoacylation ribozyme variant] | 0.582 | 0.587 | 0.655 | 0.721 |  |

| Sequence | self-aminoacylation (biotinyl-Leu-oxazolone) | self-aminoacylation (biotinyl-Val-oxazolone) | self-aminoacylation (biotinyl-Met-oxazolone) | self-aminoacylation (biotinyl-Ile-oxazolone) | self-aminoacylation (biotinyl-Trp-oxazolone) |
| --- | --- | --- | --- | --- | --- |
| CUACUUCAACCAAUCGGUCGG [Fam1A.1 aminoacylation ribozyme variant] | 1.34 | 1.11 | 1.55 | 1.24 |  |
| CUACUUCAACUAAUCGGUCUG [Fam1A.1 aminoacylation ribozyme variant] | 0.871 | 0.938 | 0.807 | 0.779 |  |
| CUACUUCAAGCAAUCGGUCCG [Fam1A.1 aminoacylation ribozyme variant] | 1.09 | 0.982 | 0.902 | 1 |  |
| CUACUUCAAGCAAUCGGUCUG [Fam1A.1 aminoacylation ribozyme variant] | 1.15 | 0.943 | 0.95 | 0.907 |  |
| CUACUUCAAUCAAUCGGUCUC [Fam1A.1 aminoacylation ribozyme variant] | 1.2 | 0.926 | 0.912 | 1 |  |
| CUAGUUCAAACAAUCGGUCUG [Fam1A.1 aminoacylation ribozyme variant] | 1.03 | 0.846 | 0.89 | 0.91 |  |
| CUAUUUCAAACAACCGGUCUG [Fam1A.1 aminoacylation ribozyme variant] | 0.844 | 0.861 | 0.85 | 0.992 |  |
| CUAUUUCAAACAAUCGGCCUG [Fam1A.1 aminoacylation ribozyme variant] | 1.38 | 1.24 | 1.34 | 1.36 |  |
| CUCCUUCAAACAAUCGGACUG [Fam1A.1 aminoacylation ribozyme variant] | 1.42 | 1.16 | 0.931 | 1.01 |  |
| CUGCUUCAAUCAAUCGGUCUG [Fam1A.1 aminoacylation ribozyme variant] | 1.97 | 1.14 | 1.42 | 1.03 |  |
| CUUAUUCAAACAAUCGGUCUG [Fam1A.1 aminoacylation ribozyme variant] | 0.679 | 0.688 | 0.713 | 0.702 |  |
| CUUCUUCAAACAAUCGGUUUG [Fam1A.1 aminoacylation ribozyme variant] | 1.26 | 0.875 | 0.884 | 0.861 |  |
| GAGUUUGCUAAUAGUCGAAAG [Fam3.1 aminoacylation ribozyme variant] | 1.32 | 1.17 | 1.61 | 1.61 |  |
| GCACAUUUCAAGCAAUCGGUC [Fam1B.1 aminoacylation ribozyme variant] | 1.67 | 1.68 | 1.5 | 1.61 |  |
| GUACUUCAAACAAUCAGUCUG [Fam1A.1 aminoacylation ribozyme variant] | 1.56 | 1.25 | 1.11 | 1.38 |  |
| GUACUUCAAACAAUCGGACUG [Fam1A.1 aminoacylation ribozyme variant] | 1.28 | 1.35 | 1.42 | 1.47 |  |
| UCACACUUCAAGCAAUCGGCC [Fam1B.1 aminoacylation ribozyme variant] | 1.99 | 1.45 | 1.91 | 1.84 |  |
| UUACUUCAAACAAUCGGUCUA [Fam1A.1 aminoacylation ribozyme variant] | 0.683 | 0.75 | 0.828 | 0.808 |  |
| UUACUUCAAACAAUCGGUCUU [Fam1A.1 aminoacylation ribozyme variant] | 1.27 | 1.05 | 1.07 | 1.25 |  |
| UUUCACCUAGGUGAUCGGGUG [Fam2.2 aminoacylation ribozyme variant] | 4.15 | 3.67 | 3.5 | 3.55 |  |
